Reference: PubChem BioAssay AID1259308 (NCATS, 2017)

Aim: 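Knock-downs that increase output of a recombinant reporter protein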 (primary screen)
Cell system: human HEK293 embryonic kidney cells stably expressing firefly luciferase (HEK-CMV-Luc2-Hygro)
Reagents: single siRNA against human genes, 0.8 pmol siRNA per well
Time to read-out: 72 h
Detection: 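Luciferase light (ONE-Glo) measured on one replicate plate set and viability (CellTiter-Glo) on the other, scaled to a negative control siRNA, with robust z-scores and luciferase per cell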
Reading the numbers: total luciferase, z-score and total luciferase, % of control: higher = more reporter protein produced; luciferase per cell, z-score: higher = more reporter output per viable cell; viable cells, % of control: higher = more viable cells
Call rule: 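An siRNA counts as active if its total luciferase robust z-score exceeds 3; genes with two or more such siRNAs out of three were retested with fresh siRNAs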
Calls: active = raised luciferase; inactive = no rise
The whole screen tested about 59,000 reagents; this is a part drawn at random. About 1,510 of all reagents (2.6%) count as active. 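Calls use total luciferase alone and ignore viability, so some active siRNAs may act by altering cell number.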 Entries without a mark were called inactive. Reagents against one gene are numbered here.

gene knocked down | reagent no. | total luciferase, z-score | total luciferase, % of control | luciferase per cell, z-score | viable cells, % of control
U2AF1 | 1 | 5.46 (active) | 191 | 4.5 | 65.1
U2AF1 | 2 | 3.64 (active) | 154 | 2.81 | 82.3
U2AF1 | 3 | 3.58 (active) | 153 | 3.75 | 63.7
LYPLA2P2 | 1 | 0.952 | 101 | 0.522 | 98.2
LYPLA2P2 | 2 | 0.432 | 90.5 | -0.0542 | 103
LYPLA2P2 | 3 | -0.868 | 64.6 | 0.0366 | 71.5
RUVBL2 | 1 | 1.23 | 106 | 1.55 | 79.1
RUVBL2 | 2 | 0.339 | 88.6 | 0.179 | 94.5
RUVBL2 | 3 | 2.03 | 122 | 2.32 | 74.2
C1orf94 | 1 | -0.141 | 79.1 | 1.08 | 66.4
C1orf94 | 2 | 0.132 | 84.5 | 0.137 | 91.1
C1orf94 | 3 | 0.76 | 97 | 0.833 | 87
SPACA4 | 1 | 0.0753 | 83.4 | -0.355 | 102
SPACA4 | 2 | 0.631 | 94.4 | 0.734 | 87
SPACA4 | 3 | -0.546 | 71 | -0.201 | 83.7
NXF5 | 1 | 1.15 | 105 | 0.521 | 102
NXF5 | 2 | 1.72 | 116 | 2.4 | 68.9
NXF5 | 3 | -0.636 | 69.2 | -0.127 | 80
MCHR2-AS1 | 1 | -0.408 | 73.8 | -1.08 | 109
MCHR2-AS1 | 2 | 0.242 | 86.7 | 0.182 | 92.4
MCHR2-AS1 | 3 | -0.46 | 72.7 | -0.0802 | 83
MAPK1IP1L | 1 | 0.668 | 95.2 | 0.16 | 102
MAPK1IP1L | 2 | 0.177 | 85.4 | -0.323 | 104
MAPK1IP1L | 3 | -0.564 | 70.7 | -0.0757 | 80.6
C6orf15 | 1 | -0.146 | 79 | -0.106 | 90.8
C6orf15 | 2 | 0.684 | 95.5 | 0.532 | 92.8
C6orf15 | 3 | 0.319 | 88.2 | 0.223 | 93
PYCR1 | 1 | 3.93 (active) | 160 | 2.2 | 100
PYCR1 | 2 | 0.538 | 92.6 | 0.113 | 100
PYCR1 | 3 | -0.536 | 71.2 | -1.02 | 104
CST6 | 1 | 1.25 | 107 | 0.392 | 108
CST6 | 2 | -1.35 | 55.1 | -2.06 | 106
CST6 | 3 | 0.663 | 95.1 | 0.283 | 98.6
TNFRSF10C | 1 | -1.22 | 57.7 | 0.274 | 59.9
TNFRSF10C | 2 | -0.182 | 78.3 | -0.766 | 107
TNFRSF10C | 3 | -1.12 | 59.6 | -0.513 | 76.2
ELP3 | 1 | -1.31 | 55.9 | -1.68 | 97.1
ELP3 | 2 | 0.314 | 88.1 | -0.316 | 107
ELP3 | 3 | -0.333 | 75.3 | 0.042 | 83.2
CELA1 | 1 | -1.53 | 51.5 | -0.761 | 70.3
CELA1 | 2 | 0.594 | 93.7 | 0.375 | 94.9
CELA1 | 3 | 0.24 | 86.7 | -0.677 | 116
SLC26A7 | 1 | 2.94 | 140 | 2.22 | 87.5
SLC26A7 | 2 | -1.61 | 50 | -1.51 | 83
SLC26A7 | 3 | 1.12 | 104 | 0.857 | 92.8
MICALL1 | 1 | 0.845 | 98.7 | 0.238 | 104
MICALL1 | 2 | 1.02 | 102 | 0.52 | 99.5
MICALL1 | 3 | 0.162 | 85.1 | -0.667 | 113
ENTPD1-AS1 | 1 | 0.272 | 87.3 | 0.0741 | 95.7
ENTPD1-AS1 | 2 | -0.247 | 77 | 0.696 | 71.6
ENTPD1-AS1 | 3 | -0.643 | 69.1 | -0.348 | 84.6
PRKAR1A | 1 | -1.84 | 45.2 | -1.85 | 82.3
PRKAR1A | 2 | 3.08 (active) | 143 | 1.72 | 102
PRKAR1A | 3 | 1.24 | 107 | 0.637 | 101
PDXDC2P-NPIPB14P | 1 | 0.122 | 84.3 | 0.542 | 81.7
PDXDC2P-NPIPB14P | 2 | 0.473 | 91.3 | 0.456 | 90.5
PDXDC2P-NPIPB14P | 3 | 0.101 | 83.9 | -0.0382 | 94.7

Records listed above called active (5):
gene knocked down | reagent no. | total luciferase, z-score | total luciferase, % of control | luciferase per cell, z-score | viable cells, % of control
U2AF1 | 1 | 5.46 (active) | 191 | 4.5 | 65.1
U2AF1 | 2 | 3.64 (active) | 154 | 2.81 | 82.3
U2AF1 | 3 | 3.58 (active) | 153 | 3.75 | 63.7
PYCR1 | 1 | 3.93 (active) | 160 | 2.2 | 100
PRKAR1A | 2 | 3.08 (active) | 143 | 1.72 | 102
